Source: the supplement of paper PMC5949888
Most values lie at the floor of the assay. Slopes are relative: functional sequences can read slightly below zero.

Each substance was assayed on Saccharomyces cerevisiae PS128 hsf1 delta, HSF1(1-493) fusion (assay: growth estimate (transactivation domain function in HSF1 fusion, heat-shock survival) (a.u. (slope of normalised read count over time)); higher = stronger growth at 37°C, i.e. more transactivation activity). Settings: library: random library.

Substance	growth estimate
MLVVSRWDASGPKGVVRTQG	< -0.25
LCTANQSNEVG	< -0.25
DSSGASRIKYRL	< -0.25
IRAAWLHLPPPRGRV	< -0.25
GIVR	< -0.25
RTNARPRSAA	< -0.25
CHSRVV	< -0.25
FMRKVKIRYRGRYRHRVPDV	< -0.25
YQRR	< -0.25
GLSIACATLPW	< -0.25
PRVYREL	< -0.25
CLCAGSGNFTRI	< -0.25
GPDANEGSPKLPDQVSWTVS	< -0.25
TYRISVQKR	-0.248
SIEPARVWYQ	< -0.25
PEV	< -0.25
PGAATSMVHP	< -0.25
DRFDQFRLSIAS	< -0.25
FAAIVNNKSVRADFRGQPRV	< -0.25
VCGFPLS	< -0.25
GLGLTSTETGLAWHERE	< -0.25
LGQPKGDQDHRRGRAGTGCL	< -0.25
IWVSTMVSTGDRRF	< -0.25
NRGWDAHGIIVKCESRCRTR	< -0.25
RFHQLRTLSTWDVAQVPSEP	< -0.25

Substance	growth estimate
DRE	< -0.25
ARTGMSHEARQPISGMLDIS	< -0.25
MVQGSKGYSLLYLAIVSGRG	< -0.25
VYYTGWGHVRSPIR	< -0.25
LTIAAIYVTTIKNYDINVPL	< -0.25
SRRR	< -0.25
DMAIIEL	< -0.25
IARRKTREIFPQSS	< -0.25
LQYSSQNVLNGTFKFVAAYA	< -0.25
HQTPISSNQLGPRTG	< -0.25
IEELLIPAGRITLERSSDKR	< -0.25
TCYQRPDRMAVDLVQEYVVV	< -0.25
FDLNQRLSKFCQNEAR	< -0.25
GAPAPEKEKIVGTPSLGA	< -0.25
GQLARLRYLCRCTFVGALNR	< -0.25
GEGSDARQPGIKLYARSVPA	< -0.25
GPTAYLWTIRLQRVEVEPGV	< -0.25
HSLMRPS	< -0.25
VKQFVWTRSLGTAGTWSPTS	< -0.25
ECHLYVNWQVPKYSGEHAL	< -0.25
AYRVLNLSVRHP	< -0.25
RLRSVGERP	0.182
WRLGELPLGEQPRTRKARTL	< -0.25
DHFQLTDHIETSWERGSRRA	< -0.25
SDVERSQIFSAKPDGQAPHC	< -0.25

Substance	growth estimate
VHSKPAR	< -0.25
GPIWWYSDRGPSLEPFHPLD	-0.161
IWVSFACITIFSRGPYPFG	< -0.25
VAKPERPHCLEY	< -0.25
RNKPETQATAMERHCRTEYV	< -0.25
KDPISVVGRGRNDSDIGDMG	< -0.25
SSGASKGLK	< -0.25
GVGVRLQQVLCVQNYRSGGP	< -0.25
GGPPGV	< -0.25
TRRTGMCSVPGSCVRATPGR	< -0.25
STFCWVFIVSVTELRAIRQL	< -0.25
WWSPD	< -0.25
LRLIGEDALAPFRTKGGIGG	< -0.25
RTRAGPAARLTPE	-0.248
NCEDGVT	-0.245
RVLDSVRRAGRAALCIGLPE	< -0.25
VPGTARCLCGSALCRRGQR	< -0.25
VCLPKRATEANS	< -0.25
DVISWPLAKTRIQNGGDTNT	-0.147
GCTEGDPALLVAFLVHGLR	< -0.25
QVYDSFRYALPGVEYTCFGL	< -0.25
RYTRREHFCTNHRISGKSRV	< -0.25
STGRGGALRSSQVMFRLGWT	< -0.25
IRRI	< -0.25
AEIHDYADA	< -0.25

Substance	growth estimate
SSQHA	< -0.25
RVGCMTLGAHSQFGILIDGI	-0.246
VVRNDVVHGSFVGYLETSAE	-0.25
DSMGHLGASTRIATPVPCSR	< -0.25
RLCVRLCSCLNR	< -0.25
AWQNARPCFLLPTRR	< -0.25
ARTG	< -0.25
KQHGTRRLEPVKAEARRGHA	< -0.25
AAGY	-0.245
VSWVRVVQSEGIQCS	< -0.25
VCTSLF	< -0.25
TVLIRRIWMQLTIQMFVGPV	-0.189
DPSPVAVVHAVSSFV	< -0.25
MPGVLGIDGPGLLDKHLIAV	< -0.25
CYMKVSLGRSARSLDITFQM	< -0.25
STLTYSSPTDRHMLQGHKSA	< -0.25
PGPISRHIKVLMLNRPSGCK	< -0.25
EVGLYEPFRAMHFSLED	< -0.25
GGL	< -0.25
RCFYRLTWQWLHGG	< -0.25
APAPQRLLAGRQTSSASSE	< -0.25
AYPLAGFLIYSCCCVRGVLG	-0.229
HRCNLLKQIRASLGECLSTT	< -0.25
LDTGIGGRIPFSQ	< -0.25
RTLRLALAKACIDQVLVNAG	< -0.25

Substance	growth estimate
EEAKDEFWPPTCAW	< -0.25
EVLKVTVILVRDLILRFTPT	< -0.25
GSIISSSGAKDKTVPGRAPY	< -0.25
SLSGRISSP	< -0.25
LDHFFVLPSSQSKLG	< -0.25
SAVRNEISVISPDVDVRHMS	< -0.25
THRCVAERYAGQ	< -0.25
LVDRIVCLRATRMVPYQLSG	< -0.25
PQHWYRAHAFCLPRAIKSLV	< -0.25
APSTLIAAWSRNSRFL	< -0.25
GTRTGVEAGIVSLHCTNSGV	< -0.25
LGN	-0.0494
IIRSLCEESSGSVERG	< -0.25
PYGESL	< -0.25
PVCASDAIGSYSGIRHRFWS	< -0.25
FRRAFYADERTLGKGHKLNA	< -0.25
SKCPRATVRRQLERMLSVLG	< -0.25
VSSTHAPASYHGLDGRRCRS	< -0.25
DTIVLAIYWSATSTESCCPF	< -0.25
VGGQLFTVQC	< -0.25
ELL	< -0.25
RPCRKV	< -0.25
PGSRLAPMSWPQHGCPSP	< -0.25
QRQNTTGARRIPLNGRIRSA	< -0.25
IYTGCCGILLRNHLGWDAKV	-0.203

Substance	growth estimate
SDFW	< -0.25
VKCFGWGTHHLRNDLVRFTR	< -0.25
CLFVGMSTALGLLFASEHA	< -0.25
TSD	< -0.25
GGTGCLHLGIVLCRVPSLVA	< -0.25
SRNPLLAVRRIGKWRTCCDP	< -0.25
VSTFKQ	< -0.25
GGTRHHDHICTGPGTVRGIM	-0.243
GKDRNTTRLCSACYRNVSPR	< -0.25
RQGQSGSEPG	< -0.25
KVGGVKKCPQGCHYLQLILF	< -0.25
LHGSFSETGVIYNCGNSLSW	-0.192
NRKWSMLG	< -0.25
DFSSSHLKCFPYLGEASFEG	-0.237
GLIA	< -0.25
NGTSF	< -0.25
VVRR	< -0.25
ITWLLLSGLPAAAVHYVCLP	< -0.25
VQFGRGGPLH	< -0.25
CYSRDT	< -0.25
RTLLSRGLPLVSRHGTWSPT	< -0.25
YKIRCQWSQPIGAVNHWAGR	< -0.25
KRRMCEYFQKRSIATAAFMP	< -0.25
SQRHTPTYWNRRSRRHAPFP	< -0.25
GCHVSHRLEKYWT	< -0.25

Substance	growth estimate
RLITICIEALPRSDESMDNR	< -0.25
IKNFSVKSCFL	< -0.25
LRMRQSLEL	< -0.25
KDCKTVTSEAYSVLHRCRCS	< -0.25
ESGCNLSFRQNVAPRGGVSP	< -0.25
VGETGGSREVI	-0.196
SVARVPIHLIPDRYKDDLAG	< -0.25
CPCGKLRGNG	< -0.25
GTLVSARFRAYTNASAVRRI	< -0.25
VNDVGEVRRRTPIVT	< -0.25
EIRKAVIVRTVHYSVFPQAC	< -0.25
SDNVCVYVFTPSALYQSSAL	< -0.25
SFDPLVNDHSGVACKLLLPR	< -0.25
CLLLADRSRPVMNEVKNVKE	< -0.25
RKLLSY	< -0.25
RCSLLLRNTGNDAAWAIFQL	< -0.25
QPIGGSRSFKVGLRGLKII	< -0.25
LDRPERGASSVNVPQTQNRT	< -0.25
VRTGISNGYLASGGTTHPFG	< -0.25
GMRMHFFLGLRHGGKFEHRD	< -0.25
TQSAKLSDGRQAGKNTILEL	-0.246
LMTGSCG	< -0.25
DHHC	< -0.25
HSTS	< -0.25
GVRSGVSKSNTSPSEGSAVP	< -0.25

Substance	growth estimate
ETLNR	< -0.25
RPELPGMFYCSQPGDQSPTL	< -0.25
EDVPQHTVGGTLLTRNQAGA	< -0.25
RGALMQGSQSVFRRRVLTRM	< -0.25
SATTLSVSFLMRHGLDDSNR	< -0.25
TELDVKCQQSRFSR	< -0.25
GSSRDASQYRQRGARISPAS	< -0.25
ALCCQEGHGQRC	< -0.25
GGAKLSCARLVRGSQAGALG	< -0.25
IDGS	< -0.25
TEMLIGEQVAQSPAKDAVPP	< -0.25
QHKSLRQLGDFRFFPTRNSL	< -0.25
ELGAPGPREAVGLGAPRDE	-0.237
QPVFQ	< -0.25
SPLFEGTGILVDFAGPATRL	< -0.25
LAGFQQ	< -0.25
FSYSGGQLARMNIRAQRPLG	< -0.25
MCSVNSSWSAIRKA	< -0.25
KGEYIAQVKWQLMS	< -0.25
DTR	< -0.25
RLVRTIPWPAGNCLRITR	< -0.25
HSQDSRRRSASLRIKLEVSP	< -0.25
